In the supplement of paper PMC6078165:

System: BT20
Experiment: relative JC-1 red fluorescence (viability) vs pre-drug, coculture with fibroblast (fraction); higher = more viable cancer cells
Experimental: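 JC-1 labelled TNBC cells cocultured 1:1 (1,500 cells each) with CellTrace Violet stained primary or stromal fibroblasts in 384-well plates in FluoroBrite medium, treated with one of 42 anticancer drugs at 0.1, 1, 10 or 100 uM. JC-1 red fluorescence (mitochondrial integrity in cancer cells only) was read by plate reader every 8 h for 72 h. Values are normalised to each well's pre-drug value. The stock of one drug was tenfold lower, so its dose labels may be too high.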

Cc1c2oc3c(C)ccc(C(=O)N[C@@H]4C(=O)N[C@H](C(C)C)C(=O)N5CCC[C@H]5C(=O)N(C)CC(=O)N(C)[C@@H](C(C)C)C(=O)O[C@@H]4C)c3nc-2c(C(=O)N[C@@H]2C(=O)N[C@H](C(C)C)C(=O)N3CCC[C@H]3C(=O)N(C)CC(=O)N(C)[C@@H](C(C)C)C(=O)O[C@@H]2C)c(N)c1=O [Dactinomycin] (I: T[dV]P[Sar][NMeV] / II: T[dV]P[Sar][NMeV]; ester I:1-I:C, II:1-II:C; linker I:N-II:N via Actinocin(9to1))
relative JC-1 red fluorescence
Details | 8 h | 16 h | 24 h | 32 h | 40 h | 48 h | 56 h | 64 h | 72 h
10 µM, coculture fibroblast: C12385 | 0.86382 | 0.753 | 0.684 | 0.583 | 0.514 | 0.488 | 0.486 | 0.486 | 0.492
10 µM, coculture fibroblast: H6013 | 0.9028 | 0.7465 | 0.722 | 0.609 | 0.589 | 0.576 | 0.597 | 0.596 | 0.592
10 µM, coculture fibroblast: H6019 | 0.838 | 0.674 | 0.592 | 0.528 | 0.462 | 0.449 | 0.434 | 0.429 | 0.431
10 µM, coculture fibroblast: H6076 | 0.927 | 0.834 | 0.673 | 0.6175 | 0.5885 | 0.568 | 0.5538 | 0.5535 | 0.5393
10 µM, coculture fibroblast: H6231 | 0.869 | 0.8073 | 0.646 | 0.573 | 0.543 | 0.516 | 0.484 | 0.47 | 0.465
10 µM, coculture fibroblast: HADF | 0.958 | 0.772 | 0.714 | 0.594 | 0.594 | 0.571 | 0.593 | 0.596 | 0.582
10 µM, coculture fibroblast: HCFa | 0.894 | 0.7997 | 0.727 | 0.618 | 0.594 | 0.581 | 0.604 | 0.609 | 0.595
10 µM, coculture fibroblast: HCPF | 0.89 | 0.8782 | 0.737 | 0.668 | 0.633 | 0.603 | 0.579 | 0.579 | 0.557
10 µM, coculture fibroblast: HHSteC | 0.887 | 0.768 | 0.727 | 0.621 | 0.611 | 0.581 | 0.584 | 0.581 | 0.566
10 µM, coculture fibroblast: HMF | 0.843 | 0.827 | 0.592 | 0.48 | 0.448 | 0.415 | 0.407 | 0.395 | 0.388
10 µM, coculture fibroblast: HPFa | 0.887 | 0.74702 | 0.7118 | 0.612 | 0.6039 | 0.5793 | 0.595 | 0.602 | 0.592
10 µM, coculture fibroblast: HUF | 0.889 | 0.7634 | 0.668 | 0.571 | 0.531 | 0.501 | 0.501 | 0.494 | 0.493
10 µM, coculture fibroblast: Hs5 | 0.878 | 0.853 | 0.724 | 0.668 | 0.629 | 0.608 | 0.601 | 0.582 | 0.576
10 µM, coculture fibroblast: Hs27A | 0.77183 | 0.9643 | 0.957 | 0.828 | 0.812 | 0.797 | 0.835 | 0.828 | 0.802
10 µM, coculture fibroblast: Hs343T | 0.814 | 0.84 | 0.615 | 0.5399 | 0.503 | 0.473 | 0.462 | 0.457 | 0.447
10 µM, coculture fibroblast: WS1 | 0.8535 | 0.647 | 0.529 | 0.456 | 0.404 | 0.391 | 0.384 | 0.387 | 0.384
100 µM, coculture fibroblast: C12385 | 0.8115 | 0.689 | 0.632 | 0.582 | 0.517 | 0.502 | 0.49 | 0.487 | 0.481
100 µM, coculture fibroblast: H6013 | 0.915 | 0.816 | 0.757 | 0.673 | 0.64 | 0.617 | 0.615 | 0.588 | 0.575
100 µM, coculture fibroblast: H6019 | 0.7825 | 0.609 | 0.507 | 0.454 | 0.39 | 0.377 | 0.355 | 0.343 | 0.3391
100 µM, coculture fibroblast: H6076 | 0.898 | 0.8435 | 0.637 | 0.567 | 0.5174 | 0.486 | 0.4634 | 0.452 | 0.43588
100 µM, coculture fibroblast: H6231 | 0.962 | 0.799 | 0.626 | 0.56 | 0.529 | 0.495 | 0.464 | 0.448 | 0.437
100 µM, coculture fibroblast: HADF | 0.905 | 0.759 | 0.6978 | 0.6 | 0.575 | 0.546 | 0.539 | 0.53 | 0.504
100 µM, coculture fibroblast: HCFa | 0.876 | 0.728 | 0.665 | 0.585 | 0.555 | 0.535 | 0.544 | 0.53 | 0.518
100 µM, coculture fibroblast: HCPF | 0.969 | 0.861 | 0.759 | 0.711 | 0.685 | 0.651 | 0.624 | 0.612 | 0.562
100 µM, coculture fibroblast: HHSteC | 0.884 | 0.73 | 0.668 | 0.552 | 0.518 | 0.486 | 0.486 | 0.47 | 0.444
100 µM, coculture fibroblast: HMF | 0.986 | 0.824 | 0.65 | 0.583 | 0.527 | 0.498 | 0.47 | 0.45 | 0.43
100 µM, coculture fibroblast: HPFa | 0.842 | 0.68 | 0.611 | 0.51 | 0.482 | 0.447 | 0.453 | 0.447 | 0.431
100 µM, coculture fibroblast: HUF | 0.8344 | 0.672 | 0.576 | 0.504 | 0.466 | 0.439 | 0.435 | 0.425 | 0.418
100 µM, coculture fibroblast: Hs5 | 0.838 | 0.8 | 0.644 | 0.57 | 0.538 | 0.498 | 0.5 | 0.482 | 0.466
100 µM, coculture fibroblast: Hs27A | 0.955 | 0.918 | 0.849 | 0.863 | 0.837 | 0.735 | 0.709 | 0.736 | 0.754
100 µM, coculture fibroblast: Hs343T | 0.931 | 0.759 | 0.557 | 0.493 | 0.471 | 0.443 | 0.413 | 0.414 | 0.39
100 µM, coculture fibroblast: WS1 | 0.807 | 0.63 | 0.554 | 0.485 | 0.423 | 0.403 | 0.385 | 0.364 | 0.355

Values are relative to the signal before dosing, not to a vehicle control; the signal also falls without drug.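 Fibroblast labels denote human fibroblasts, mainly primary ones from uterus (C12385, HUF), lung (H6013), bone (Hs27A), adrenal (HADF) and skin (WS1), plus mammary HMF and breast cancer-associated Hs343T. Cancer cells are basal-like or mesenchymal-like triple-negative breast cancer lines. A hit is a response shift exceeding 3x replicate standard deviation. The tissue of the other fibroblasts is not given here.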 Numbered stars: 1 amine (or outer) side, 2 acyl side, 3 side chain; on linkers, the order of the positions; unused ones are H or OH. Bridge positions count the residues as written; N and C are the ends. Square brackets hold non-standard residues; d marks the D form. Peptide text beside a SMILES is read from it. I, II: the chains in the order shown. Actinocin(9to1) = Cc1c2oc3c(C)ccc(C(=O)[*:1])c3nc-2c(C(=O)[*:2])c(N)c1=O; NMeV = CN[C@H](C(=O)O)C(C)C; Sar = CNCC(=O)O
